Test results: patent publication EP0309120A2, “Atrial hypotensive peptide” (QUEEN'S UNIVERSITY AT KINGSTON, priority 1987, dated 1989)
At least one peptide structure holds a part that was inferred or is arguable (an end, a ring closure or a residue). Bridge positions count the residues as written; N and C are the ends. Ends that are not written are not given here.

Tests used:
bioassay rats = assay: Bolus injection into anesthetized bioassay rats: urinary and cardiovascular responses; type: in vivo, male Sprague-Dawley rats; conditions: result in words
Experimental: Experiments were performed using male Sprague-Dawley rats, ranging in weight from 270-362 g. The rats were anesthetized by an intraperitoneal injection of sodium pentobarbital (70 mg.kg-1; MTC Pharmaceuticals, Hamilton, Ont.). Additional small amounts of anesthetic were administered as required in the course of the experiment. […] After installing a tracheal cannula, a femoral vein was cannulated and a priming infusion of saline (0.9% NaCl) was administered over a 20 min period (1.1 ml); this was followed by a maintenance saline infusion of 1.2 ml.h-1. The femoral artery was then cannulated for blood pressure measurement (Statham pressure transducer, model P23Db). A catheter was also advanced via the right external jugular vein towards the right heart for bolus injections of vehicle, ANF or the atrial peptide of the present invention (AHP). After tying off the penis, the bladder was cannulated for urine collection. Rates were not used or experiments aborted if the urine became bloody. The EKG was recorded for determination of heart rate.
Urine was collected in preweighed vials and volume calculated by weighing. […]
Zero time was established by 40-60 mins from the beginning the priming saline infusion. […] Cardiovascular measurements were analyzed at 5 min intervals during control and at 1, 5, 10, 15 and 20 mins following administration of injectate. […]

[1] = tested on: anti-serum to iso-rANP(1-20) (P2A); assay: Double immunodiffusion with rabbit anti-serum raised against P2A; type: binding, New Zealand white rabbits
[2] = tested on: antiserum to iso-rANP(1-20) (P2A); assay: Radioimmunoassay (RIA) with anti-P2A antiserum and 125I-P2A-Y tracer; type: binding, New Zealand white rabbits; conditions: overnight at 4°C
Text: The procedure was repeated to produce the same 20 amino acid residue fragment with a tyrosine residue attached to the N-terminal serine. The 20-residue peptide (P2A) was mixed with Freund's complete adjuvant and injected subcutaneously into New Zealand white rabbits. After boosting at 5 weeks after the initial injection the rabbits were bled 1 week later. […] Tyrosinated P2A (P2A-Y) was iodinated using the chloramine T method and the iodinated tracer was purified by HPLC on a Waters µBondapak C₁₈ column. For radioimmunossay (RIA) the buffer contained 0.1M NaHPO₄ buffer, pH 7.4, 0.05M NaCl, 0.1% BSA and 0.02% […]. The RIA incubation mixture contained 3-100 pg of P2A in 100 µ l of buffer, 100 µl of diluted antiserum and 100 µl of ¹²⁵I-P2A-Y (approx. 8000 cpm). After incubation overnight at 4°C bound and free iodinated peptide were separated by second antibody precipitation using goat anti-rabbit - globulin. The sensitivity of the assay was 2-3 pg/tube with 50% displacement at 25-30 pg/tube.
The RIA was then used to monitor the purification of the peptide de novo from atrial extracts using gel-filtration and reverse-phase HPLC. The procedure used was essentially the same as the one briefly described above for the purification of ANP, except that the initial extraction and the gel-filtration stages were done in the presence of several protease inhibitors.

[3] = tested on: Aortic rings (thoracic aortae); assay: Vasorelaxant activity on phenylephrine-contracted aortic rings; set-up: species or system New Zealand White rabbits; conditions: result in words
Experimental: Aortic rings (3-4mm) were cut from the thoracic aortae of New Zealand White rabbits. The rings were suspended in a 10 ml tissue bath containing Kreb's Ringer Solution, pH 7.4 at 37°C. The rings were maintained at about 70% of maximal contraction with phenylephrine in doses ranging from 1 x 10⁻⁶ to 5 x 10⁻⁸M. Vasorelaxant activity or peptides was tested by adding various concentrations of peptide to the bath.

| Sequence | intrinsic biological activity (bioassay rats; synthetic fragment) | reaction with anti-serum (precipitin lines / cross reactivity) [1] | 50% displacement [2] | diuretic, natriuretic, hypotensive and bradycardic responses (bioassay rats; injected into bioassay rats) | smooth muscle vaso-relaxant activity ([3]; rabbit aortic rings at about 70% of maximal contraction with phenylephrine) | relaxation of phenylephrine induced contraction compared to rANP(99-126) ([3]; rabbit thoracic aortal rings) |
| --- | --- | --- | --- | --- | --- | --- |
| SQDSAFRIQERLRNSKMAHS [iso-rANP(1-20)] | did not have any intrinsic biological activity | gave precipitin lines | 25-30 pg/tube | – | – | – |
| SQDSAFRIQERLRNSKMAHSSSCFGQKIDRIGAVSRLGCDILLIAQ (disulfide 23-39) [iso-rANP(1-46)] | – | gave precipitin lines | – | diuresis and natriuresis effects | showed smooth muscle vaso-relaxant activity | slower and smaller relaxation |
